Among all 31,000 sequences or so, about 1,400 (4.5%) were called active.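 The calls were made as follows: active = median seed-adjusted z-score above 1 or below -1; inactive = the rest.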 Some of the results follow.
Experiment: Novel Modifiers of Survival Motor Neuron (SMN) Protein: Gene Identification via Genome-wide siRNA Screen;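 also: luminescence tracks full-length SMN protein made from the SMN2 reporter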
Settings: HEK293T SMN2-luciferase reporter, siRNA knockdown, 72 h; actives lie on both sides
Outline: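 Genome-wide siRNA screen (10418 genes, 3 siRNAs each, 1 pmol per well) by reverse transfection in HEK293T cells stably carrying an SMN2-luciferase reporter; luminescence after 72 hours, normalized to negative-control siRNA, log10-transformed, MAD-scored.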

**Q.** Which median seed-adjusted z-score does the source give for GACUUUCAAGAAUUCAUAUTT against S100A12 here?
**A.** inactive: 0.346

**Q.** Which median seed-adjusted z-score does the source give for CCAUCGUGGUAGAUCCGUUTT against CBL here?
**A.** inactive: -0.417

**Q.** For GAACCAAGUCACAAAAGAATT against ADCY2, which median seed-adjusted z-score is on record?
**A.** inactive: 0.173

**Q.** Which median seed-adjusted z-score does the source give for CGAGCAAUAUGACCAUCUUTT against CD86 here?
**A.** inactive: 0

**Q.** For GCUCGGCUACUGAAAGUCATT against DNALI1, which median seed-adjusted z-score is on record?
**A.** inactive: 0.699

**Q.** With CCAAAGAUGUUUCAUCUGATT against PCDHGA7 as the sequence, how does the median seed-adjusted z-score read?
**A.** inactive: 0.705

**Q.** For GGGAGACAGUGCUCACGAATT against REM2, which median seed-adjusted z-score is on record?
**A.** inactive: 0.109

**Q.** Which median seed-adjusted z-score does the source give for CCUUAUCCGAGAAUACAUUTT against TUBAL3 here?
**A.** active: 1.05

**Q.** For CAUCGUUUCUAGACCAUUATT against OXGR1, which median seed-adjusted z-score is on record?
**A.** inactive: -0.0388

**Q.** With GAACGGCUCUUAAGAUCAATT against CACNA1D as the sequence, how does the median seed-adjusted z-score read?
**A.** inactive: -0.0856

**Q.** With GGAUUAUCCUCGACUUACATT against DYNC1LI1 as the sequence, how does the median seed-adjusted z-score read?
**A.** inactive: -0.683

**Q.** For GGUCAAGUUUUUGAUCAGATT against CPM, which median seed-adjusted z-score is on record?
**A.** inactive: 0.549

**Q.** For CUGUCCGUAUGAUUACAAATT against ZFAND5, which median seed-adjusted z-score is on record?
**A.** inactive: 0.0289

**Q.** For GGGUCUCAGCUGUACUCUATT against KCNJ13, which median seed-adjusted z-score is on record?
**A.** inactive: 0.327

**Q.** Which median seed-adjusted z-score does the source give for GCAAAGACCUGUGAAGCUATT against NAT14 here?
**A.** inactive: -0.283

**Q.** With CAAUCCGGCGGAAAUCAGATT against CDX1 as the sequence, how does the median seed-adjusted z-score read?
**A.** inactive: 0

**Q.** For UGACCGCUCCCUUCGCAAATT against ACP5, which median seed-adjusted z-score is on record?
**A.** inactive: 0.353

**Q.** For GAAUGUUAGUAGACGGGUUTT against IKZF5, which median seed-adjusted z-score is on record?
**A.** inactive: 0.399

**Q.** For GACUCAUACCAAUCACGAATT against JMJD1A, which median seed-adjusted z-score is on record?
**A.** inactive: 0.466

**Q.** For ACAGAAACUUUGAGGUGGATT against MAP2K3, which median seed-adjusted z-score is on record?
**A.** inactive: 0.365

**Q.** Which median seed-adjusted z-score does the source give for CAUCUGCGGUAGAAAAGGATT against SERTAD3 here?
**A.** inactive: -0.216

**Q.** Which median seed-adjusted z-score does the source give for CCAUUUUAGCUCUAGAAGATT against GSTA4 here?
**A.** inactive: -0.848

**Q.** Which median seed-adjusted z-score does the source give for GGUGUAUGUUGGUAUCAGUTT against RSF1 here?
**A.** inactive: 0

**Q.** Which median seed-adjusted z-score does the source give for GACCUGUGCUUGCUAAAGATT against ZNF653 here?
**A.** inactive: -0.202

**Q.** Which median seed-adjusted z-score does the source give for CCUCAAUCAGUCUACAGAATT against USP29 here?
**A.** inactive: 0.00928

**Q.** For CCAGUACACUUUUGUCUGATT against CDC5L, which median seed-adjusted z-score is on record?
**A.** inactive: -0.628

**Q.** With GAGACAAGAUUGUAGCAGATT against DLG5 as the sequence, how does the median seed-adjusted z-score read?
**A.** inactive: 0.467

**Q.** Which median seed-adjusted z-score does the source give for GCAACCAAAUCGGAUGAUATT against ADAMTSL1 here?
**A.** inactive: -0.107

**Q.** For ACCGCACGAUGUUCAACUUTT against DNAJC30, which median seed-adjusted z-score is on record?
**A.** inactive: 0.329

**Q.** Which median seed-adjusted z-score does the source give for GAGUUUCUGUCCAAACUGATT against IL17RA here?
**A.** active: -1.29

**Q.** With GAGUCUUAGUAAAAGAAUUTT against GK as the sequence, how does the median seed-adjusted z-score read?
**A.** inactive: -0.474

**Q.** Which median seed-adjusted z-score does the source give for CCAGUGCUUGAGUAUCCAATT against ACOX3 here?
**A.** inactive: 0.658

**Q.** For GGAAUAUACAUGUCAAGAATT against GRPR, which median seed-adjusted z-score is on record?
**A.** inactive: 0.121

**Q.** Which median seed-adjusted z-score does the source give for CUAUCCAACUCAAACGAUUTT against USP9Y here?
**A.** inactive: 0.012

**Q.** With CUUCAUCGAUAUCUACUUUTT against CATSPER3 as the sequence, how does the median seed-adjusted z-score read?
**A.** inactive: 0.685

**Q.** Which median seed-adjusted z-score does the source give for GGAAGUCGACAGUUAAAAUTT against DUSP14 here?
**A.** inactive: 0.0654

**Q.** Which median seed-adjusted z-score does the source give for GAAUAGCAAUUACAGUUAATT against SRR here?
**A.** inactive: -0.256

**Q.** Which median seed-adjusted z-score does the source give for CCACUUACUUUAGAAGACATT against ZNF77 here?
**A.** inactive: 0.345

**Q.** With CGAAGUUCAUAGACGAGAUTT against PPP1R2 as the sequence, how does the median seed-adjusted z-score read?
**A.** inactive: 0.208

**Q.** For GCACGGCAAUUGAAGCAUATT against CCNG1, which median seed-adjusted z-score is on record?
**A.** inactive: 0.131

**Q.** Which median seed-adjusted z-score does the source give for GACCUGACAGGACAACCUATT against MDFI here?
**A.** inactive: 0.279

**Q.** Which median seed-adjusted z-score does the source give for CGCUCCAAAGAGUACAUAUTT against TIA1 here?
**A.** inactive: -0.188

**Q.** For CCACUGACAAGGUCCACGATT against MRGPRD, which median seed-adjusted z-score is on record?
**A.** inactive: -0.484

**Q.** For GCUUCGUGACGCACACCAATT against PISD, which median seed-adjusted z-score is on record?
**A.** inactive: 0.231

**Q.** Which median seed-adjusted z-score does the source give for CCUCCCAUCUUAUUAUCCATT against ZNF572 here?
**A.** inactive: 0.237

**Q.** With GGAUUAAACCAGACCGUGUTT against IRX5 as the sequence, how does the median seed-adjusted z-score read?
**A.** inactive: -0.373

**Q.** For GCAAGAAAGCUAACACUUATT against VAX2, which median seed-adjusted z-score is on record?
**A.** inactive: -0.71

**Q.** For CCAUGAAUCUACUAAAGCATT against QARS, which median seed-adjusted z-score is on record?
**A.** inactive: -0.411

**Q.** With CUGUCGUCCUCAACCCUAUTT against NDST3 as the sequence, how does the median seed-adjusted z-score read?
**A.** inactive: 0.476

**Q.** Which median seed-adjusted z-score does the source give for AGAAGACCAUUGUCAAGGATT against EXOC7 here?
**A.** inactive: -0.231

**Q.** For GCACGUCUACAGUCACACUTT against ZNF764, which median seed-adjusted z-score is on record?
**A.** inactive: 0.184

**Q.** Which median seed-adjusted z-score does the source give for GAGACUAUUAUAUCGAGUATT against TRPA1 here?
**A.** inactive: 0.341

**Q.** For GAUUUAAAGGUGUAUGGAATT against SLC25A3, which median seed-adjusted z-score is on record?
**A.** inactive: -0.495

**Q.** With GGACUUGCUAAAACCAGAATT against TUBGCP3 as the sequence, how does the median seed-adjusted z-score read?
**A.** inactive: -0.685

**Q.** Which median seed-adjusted z-score does the source give for CCUCGUACCUUGUACAACATT against ZNF30 here?
**A.** inactive: -0.0208

**Q.** Which median seed-adjusted z-score does the source give for GGUCAUUAGGAACUAUUCUTT against VAV3 here?
**A.** inactive: 0

**Q.** With AGUUUAAUCGGAAAGCCUUTT against NANS as the sequence, how does the median seed-adjusted z-score read?
**A.** active: -1.54

**Q.** With GACUAUGUCCUGACAUAUATT against DSC2 as the sequence, how does the median seed-adjusted z-score read?
**A.** inactive: -0.0641

**Q.** With GGAUGUGGACAGUGCCUAUTT against KRT3 as the sequence, how does the median seed-adjusted z-score read?
**A.** inactive: 0.399

**Q.** For CGAUGGAAAUUCCGAAAGATT against ACAD10, which median seed-adjusted z-score is on record?
**A.** inactive: -0.269

**Q.** With CAUCAACUUAUUACGUUAATT against CENPE as the sequence, how does the median seed-adjusted z-score read?
**A.** inactive: 0.298

**Q.** Which median seed-adjusted z-score does the source give for CAAUGACGGCAAGUCUAAATT against PTPN11 here?
**A.** inactive: 0.186

**Q.** For GCACCUUUAUCUAUGGUUATT against PSMB9, which median seed-adjusted z-score is on record?
**A.** inactive: -0.788

**Q.** Which median seed-adjusted z-score does the source give for GGCUCAAGAGUAUUUCUGATT against MIP here?
**A.** inactive: 0.702

**Q.** With GAUUACCCUUAGAUCAUAUTT against NARG1 as the sequence, how does the median seed-adjusted z-score read?
**A.** active: -1.02

**Q.** With CAGUCUUCCUUAUUAUUAATT against SLC43A3 as the sequence, how does the median seed-adjusted z-score read?
**A.** inactive: 0.431

**Q.** Which median seed-adjusted z-score does the source give for GAUCUUCAGUCACCUUCAATT against CA12 here?
**A.** inactive: -0.0119

**Q.** Which median seed-adjusted z-score does the source give for CAAGUGCAUUGGUGAAAGATT against IL5 here?
**A.** inactive: -0.229

**Q.** Which median seed-adjusted z-score does the source give for CGGAAAGUACUUAAACGGATT against PIAS4 here?
**A.** inactive: 0.265

— PubChem BioAssay AID1347426 (Functional Genomics Laboratory (NCATS/FGL), 2020)
